These are yes or no findings as the source states them, for the method shown. Binding seen in cells or lysates may run through a third protein. A yes stands for co-enrichment or nearness to the bait. Other partners may have been found.
T1: TIA-1 related protein (TIA-R) (human (endogenous in frontal cortex tissue)) (UniProt Q01085)
T1 sequence: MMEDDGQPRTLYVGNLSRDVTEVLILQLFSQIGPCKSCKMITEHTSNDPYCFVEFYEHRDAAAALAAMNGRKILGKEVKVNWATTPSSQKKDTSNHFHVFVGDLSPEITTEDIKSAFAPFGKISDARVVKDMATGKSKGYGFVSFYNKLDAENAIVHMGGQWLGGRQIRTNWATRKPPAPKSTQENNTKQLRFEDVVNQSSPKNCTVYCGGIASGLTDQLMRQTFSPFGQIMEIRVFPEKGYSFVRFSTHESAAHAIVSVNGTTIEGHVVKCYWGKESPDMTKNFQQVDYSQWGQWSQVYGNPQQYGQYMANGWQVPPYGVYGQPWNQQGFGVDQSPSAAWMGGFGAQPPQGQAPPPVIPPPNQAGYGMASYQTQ

T2: TIA-1 related protein (TIA-R) (human (endogenous in frontal cortex tissue)), Q01085
T2 chain: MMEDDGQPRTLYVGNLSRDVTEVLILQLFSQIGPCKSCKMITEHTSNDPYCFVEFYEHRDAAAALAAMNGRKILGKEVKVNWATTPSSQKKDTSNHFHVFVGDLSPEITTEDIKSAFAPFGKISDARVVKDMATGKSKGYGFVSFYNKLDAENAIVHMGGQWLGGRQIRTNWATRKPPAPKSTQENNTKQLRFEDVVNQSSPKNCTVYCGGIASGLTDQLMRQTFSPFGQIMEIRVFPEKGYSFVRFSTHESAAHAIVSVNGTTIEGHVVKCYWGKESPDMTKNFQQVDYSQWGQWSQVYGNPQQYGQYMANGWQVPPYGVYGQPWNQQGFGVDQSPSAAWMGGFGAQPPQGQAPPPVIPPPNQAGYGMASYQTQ


Target: T1, TIA-1 related protein (TIA-R) (human (endogenous in frontal cortex tissue))
Test: affinity purification with mass spectrometry
Settings: not given

Row | binding | Binder
1 | binds | PLCB3 (protein, UniProt Q01970 1-1234) MAGAQPGVHALQLEPPTVVETLRRGSKFIKWDEETSSRNLVTLRVDPNGFFLYWTGPNMEVDTLDISSIRDTRTGRYARLPKDPKIREVLGFGGPDARLEEKLMTVVSGPDPVNTVFLNFMAVQDDTAKVWSEELFKLAMNILAQNASRNTFLRKAYTKLKLQVNQDGRIPVKNILKMFSADKKRVETALESCGLKFNRSESIRPDEFSLEIFERFLNKLCLRPDIDKILLEIGAKGKPYLTLEQLMDFINQKQRDPRLNEVLYPPLRPSQARLLIEKYEPNQQFLERDQMSMEGFSRYLGGEENGILPLEALDLSTDMTQPLSAYFINSSHNTYLTAGQLAGTSSVEMYRQALLWGCRCVELDVWKGRPPEEEPFITHGFTMTTEVPLRDVLEAIAETAFKTSPYPVILSFENHVDSAKQQAKMAEYCRSIFGDALLIEPLDKYPLAPGVPLPSPQDLMGRILVKNKKRHRPSAGGPDSAGRKRPLEQSNSALSESSAATEPSSPQLGSPSSDSCPGLSNGEEVGLEKPSLEPQKSLGDEGLNRGPYVLGPADREDEEEDEEEEEQTDPKKPTTDEGTASSEVNATEEMSTLVNYIEPVKFKSFEAARKRNKCFEMSSFVETKAMEQLTKSPMEFVEYNKQQLSRIYPKGTRVDSSNYMPQLFWNVGCQLVALNFQTLDVAMQLNAGVFEYNGRSGYLLKPEFMRRPDKSFDPFTEVIVDGIVANALRVKVISGQFLSDRKVGIYVEVDMFGLPVDTRRKYRTRTSQGNSFNPVWDEEPFDFPKVVLPTLASLRIAAFEEGGKFVGHRILPVSAIRSGYHYVCLRNEANQPLCLPALLIYTEASDYIPDDHQDYAEALINPIKHVSLMDQRARQLAALIGESEAQAGQETCQDTQSQQLGSQPSSNPTPSPLDASPRRPPGPTTSPASTSLSSPGQRDDLIASILSEVAPTPLDELRGHKALVKLRSRQERDLRELRKKHQRKAVTLTRRLLDGLAQAQAEGRCRLRPGALGGAADVEDTKEGEDEAKRYQEFQNRQVQSLLELREAQVDAEAQRRLEHLRQALQRLREVVLDANTTQFKRLKEMNEREKKELQKILDRKRHNSISEAKMRDKHKKEAELTEINRRHITESVNSIRRLEEAQKQRHDRLVAGQQQVLQQLAEEEPKLLAQLAQECQEQRARLPQEIRRSLLGEMPEGLGDGPLVACASNGHAPGSSGHLSGADSESQEENTQL
2 | binds | SERPINH1 (protein, UniProt P50454 19-418) AEVKKPAAAAAPGTAEKLSPKAATLAERSAGLAFSLYQAMAKDQAVENILVSPVVVASSLGLVSLGGKATTASQAKAVLSAEQLRDEEVHAGLGELLRSLSNSTARNVTWKLGSRLYGPSSVSFADDFVRSSKQHYNCEHSKINFRDKRSALQSINEWAAQTTDGKLPEVTKDVERTDGALLVNAMFFKPHWDEKFHHKMVDNRGFMVTRSYTVGVMMMHRTGLYNYYDDEKEKLQIVEMPLAHKLSSLIILMPHHVEPLERLEKLLTKEQLKIWMGKMQKKAVAISLPKGVVEVTHDLQKHLAGLGLTEAIDKNKADLSRMSGKKDLYLASVFHATAFELDTDGNPFDQDIYGREELRSPKLFYADHPFIFLVRDTQSGSLLFIGRLVRPKGDKMRDEL
3 | binds | EEF1B2 (protein, UniProt P24534 1-225) MGFGDLKSPAGLQVLNDYLADKSYIEGYVPSQADVAVFEAVSSPPPADLCHALRWYNHIKSYEKEKASLPGVKKALGKYGPADVEDTTGSGATDSKDDDDIDLFGSDDEEESEEAKRLREERLAQYESKKAKKPALVAKSSILLDVKPWDDETDMAKLEECVRSIQADGLVWGSSKLVPVGYGIKKLQIQCVVEDDKVGTDMLEEQITAFEDYVQSMDVAAFNKI
4 | binds | HNRNPL (protein, UniProt P14866 1-589) MSRRLLPRAEKRRRRLEQRQQPDEQRRRSGAMVKMAAAGGGGGGGRYYGGGSEGGRAPKRLKTDNAGDQHGGGGGGGGGAGAAGGGGGGENYDDPHKTPASPVVHIRGLIDGVVEADLVEALQEFGPISYVVVMPKKRQALVEFEDVLGACNAVNYAADNQIYIAGHPAFVNYSTSQKISRPGDSDDSRSVNSVLLFTILNPIYSITTDVLYTICNPCGPVQRIVIFRKNGVQAMVEFDSVQSAQRAKASLNGADIYSGCCTLKIEYAKPTRLNVFKNDQDTWDYTNPNLSGQGDPGSNPNKRQRQPPLLGDHPAEYGGPHGGYHSHYHDEGYGPPPPHYEGRRMGPPVGGHRRGPSRYGPQYGHPPPPPPPPEYGPHADSPVLMVYGLDQSKMNCDRVFNVFCLYGNVEKVKFMKSKPGAAMVEMADGYAVDRAITHLNNNFMFGQKLNVCVSKQPAIMPGQSYGLEDGSCSYKDFSESRNNRFSTPEQAAKNRIQHPSNVLHFFNAPLEVTEENFFEICDELGVKRPSSVKVFSGKSERSSSGLLEWESKSDALETLGFLNHYQMKNPNGPYPYTLKLCFSTAQHAS
5 | binds | SEPTIN7 (protein, UniProt Q16181 1-437) MSVSARSAAAEERSVNSSTMVAQQKNLEGYVGFANLPNQVYRKSVKRGFEFTLMVVGESGLGKSTLINSLFLTDLYSPEYPGPSHRIKKTVQVEQSKVLIKEGGVQLLLTIVDTPGFGDAVDNSNCWQPVIDYIDSKFEDYLNAESRVNRRQMPDNRVQCCLYFIAPSGHGLKPLDIEFMKRLHEKVNIIPLIAKADTLTPEECQQFKKQIMKEIQEHKIKIYEFPETDDEEENKLVKKIKDRLPLAVVGSNTIIEVNGKRVRGRQYPWGVAEVENGEHCDFTILRNMLIRTHMQDLKDVTNNVHYENYRSRKLAAVTYNGVDNNKNKGQLTKSPLAQMEEERREHVAKMKKMEMEMEQVFEMKVKEKVQKLKDSEAELQRRHEQMKKNLEAQHKELEEKRRQFEDEKANWEAQQRILEQQNSSRTLEKNKKKGKIF

Target: T2, TIA-1 related protein (TIA-R) (human …)
Test: affinity purification with mass spectrometry
Settings: remark: other sources report otherwise

Row | binding | Binder
6 | binds | DDX6, P26196 1-483 (protein) MSTARTENPVIMGLSSQNGQLRGPVKPTGGPGGGGTQTQQQMNQLKNTNTINNGTQQQAQSMTTTIKPGDDWKKTLKLPPKDLRIKTSDVTSTKGNEFEDYCLKRELLMGIFEMGWEKPSPIQEESIPIALSGRDILARAKNGTGKSGAYLIPLLERLDLKKDNIQAMVIVPTRELALQVSQICIQVSKHMGGAKVMATTGGTNLRDDIMRLDDTVHVVIATPGRILDLIKKGVAKVDHVQMIVLDEADKLLSQDFVQIMEDIILTLPKNRQILLYSATFPLSVQKFMNSHLQKPYEINLMEELTLKGVTQYYAYVTERQKVHCLNTLFSRLQINQSIIFCNSSQRVELLAKKISQLGYSCFYIHAKMRQEHRNRVFHDFRNGLCRNLVCTDLFTRGIDIQAVNVVINFDFPKLAETYLHRIGRSGRFGHLGLAINLITYDDRFNLKSIEEQLGTEIKPIPSNIDKSLYVAEYHSEPVEDEKP
